Measurements reported in publication doi:10.1101/2023.05.07.539754.
These are yes or no findings as the source states them, for the method shown. In cells and extracts the contact can be indirect. Some binding calls cover weakened binding; strength is not graded here.

Protein sequences, listed by entry. Tags and fused reporters are not part of them. Lines headed by an entry give the natural chain unless they say otherwise; changes in a name come on top. Chains listed by the source or under a name are the forms on record and can include a tag or linker.
UniProt P10275: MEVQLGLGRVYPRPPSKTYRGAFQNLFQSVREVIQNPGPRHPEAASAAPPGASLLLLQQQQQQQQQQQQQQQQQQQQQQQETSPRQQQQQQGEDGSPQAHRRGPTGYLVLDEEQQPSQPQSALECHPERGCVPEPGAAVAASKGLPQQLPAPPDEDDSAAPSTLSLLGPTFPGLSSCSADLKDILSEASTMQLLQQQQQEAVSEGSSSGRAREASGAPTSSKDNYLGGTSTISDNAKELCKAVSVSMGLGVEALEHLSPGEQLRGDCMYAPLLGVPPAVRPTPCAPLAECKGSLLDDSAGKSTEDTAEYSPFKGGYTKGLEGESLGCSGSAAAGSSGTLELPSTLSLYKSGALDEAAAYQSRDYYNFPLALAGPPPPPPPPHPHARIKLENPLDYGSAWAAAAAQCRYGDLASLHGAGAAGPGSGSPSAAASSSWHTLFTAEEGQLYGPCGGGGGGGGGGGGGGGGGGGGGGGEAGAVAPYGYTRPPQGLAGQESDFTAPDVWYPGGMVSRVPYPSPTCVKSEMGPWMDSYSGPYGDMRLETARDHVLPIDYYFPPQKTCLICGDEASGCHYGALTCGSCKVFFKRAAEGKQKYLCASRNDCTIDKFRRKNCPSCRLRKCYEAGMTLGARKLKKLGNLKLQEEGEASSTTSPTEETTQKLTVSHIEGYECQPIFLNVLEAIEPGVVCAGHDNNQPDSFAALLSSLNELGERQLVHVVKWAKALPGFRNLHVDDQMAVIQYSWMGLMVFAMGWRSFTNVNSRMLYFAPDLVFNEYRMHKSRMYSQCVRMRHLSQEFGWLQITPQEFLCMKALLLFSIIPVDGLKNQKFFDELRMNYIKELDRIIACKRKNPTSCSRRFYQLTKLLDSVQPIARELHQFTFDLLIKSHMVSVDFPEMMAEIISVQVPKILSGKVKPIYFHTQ
ARV7 (P10275-3, form named): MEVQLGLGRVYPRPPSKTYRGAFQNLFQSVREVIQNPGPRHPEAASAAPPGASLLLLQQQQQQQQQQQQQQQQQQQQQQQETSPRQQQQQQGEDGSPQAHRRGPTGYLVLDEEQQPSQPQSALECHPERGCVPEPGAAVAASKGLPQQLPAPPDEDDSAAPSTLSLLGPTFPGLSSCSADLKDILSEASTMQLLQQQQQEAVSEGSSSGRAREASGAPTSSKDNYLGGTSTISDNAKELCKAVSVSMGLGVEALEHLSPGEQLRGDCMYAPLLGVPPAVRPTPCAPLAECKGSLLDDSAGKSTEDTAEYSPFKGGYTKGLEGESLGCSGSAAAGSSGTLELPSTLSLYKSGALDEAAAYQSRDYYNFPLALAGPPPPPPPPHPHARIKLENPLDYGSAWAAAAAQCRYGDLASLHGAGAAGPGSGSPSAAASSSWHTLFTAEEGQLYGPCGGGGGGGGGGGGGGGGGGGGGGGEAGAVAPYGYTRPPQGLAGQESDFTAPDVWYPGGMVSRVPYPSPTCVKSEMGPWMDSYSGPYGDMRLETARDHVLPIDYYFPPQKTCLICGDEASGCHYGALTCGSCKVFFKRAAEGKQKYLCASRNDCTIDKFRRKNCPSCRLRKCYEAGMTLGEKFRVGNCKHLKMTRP
UniProt P04150: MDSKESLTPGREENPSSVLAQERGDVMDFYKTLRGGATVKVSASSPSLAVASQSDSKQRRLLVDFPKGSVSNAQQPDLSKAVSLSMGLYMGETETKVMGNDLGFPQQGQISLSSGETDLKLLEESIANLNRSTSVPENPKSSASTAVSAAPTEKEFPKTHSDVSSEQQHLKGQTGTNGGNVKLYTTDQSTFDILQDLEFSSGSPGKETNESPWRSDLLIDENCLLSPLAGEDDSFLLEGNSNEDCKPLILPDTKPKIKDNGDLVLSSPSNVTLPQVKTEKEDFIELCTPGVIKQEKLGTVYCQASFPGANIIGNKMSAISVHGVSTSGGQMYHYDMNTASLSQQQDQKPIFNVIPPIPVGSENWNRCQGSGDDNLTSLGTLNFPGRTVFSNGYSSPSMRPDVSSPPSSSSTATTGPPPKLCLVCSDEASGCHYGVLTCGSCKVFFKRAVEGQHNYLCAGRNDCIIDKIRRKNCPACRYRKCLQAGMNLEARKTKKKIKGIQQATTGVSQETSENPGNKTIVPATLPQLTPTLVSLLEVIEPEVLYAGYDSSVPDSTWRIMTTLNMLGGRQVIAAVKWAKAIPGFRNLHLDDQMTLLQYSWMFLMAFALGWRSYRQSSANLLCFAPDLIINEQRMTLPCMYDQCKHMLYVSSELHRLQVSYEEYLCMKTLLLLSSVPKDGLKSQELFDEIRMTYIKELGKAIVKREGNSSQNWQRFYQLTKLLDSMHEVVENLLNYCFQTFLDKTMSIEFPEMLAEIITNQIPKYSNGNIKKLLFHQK

target: T1, TBX2 (human (endogenous in 22Rv1 and C4-2B)) (UniProt Q13207); experiment: co-IP
T1 sequence: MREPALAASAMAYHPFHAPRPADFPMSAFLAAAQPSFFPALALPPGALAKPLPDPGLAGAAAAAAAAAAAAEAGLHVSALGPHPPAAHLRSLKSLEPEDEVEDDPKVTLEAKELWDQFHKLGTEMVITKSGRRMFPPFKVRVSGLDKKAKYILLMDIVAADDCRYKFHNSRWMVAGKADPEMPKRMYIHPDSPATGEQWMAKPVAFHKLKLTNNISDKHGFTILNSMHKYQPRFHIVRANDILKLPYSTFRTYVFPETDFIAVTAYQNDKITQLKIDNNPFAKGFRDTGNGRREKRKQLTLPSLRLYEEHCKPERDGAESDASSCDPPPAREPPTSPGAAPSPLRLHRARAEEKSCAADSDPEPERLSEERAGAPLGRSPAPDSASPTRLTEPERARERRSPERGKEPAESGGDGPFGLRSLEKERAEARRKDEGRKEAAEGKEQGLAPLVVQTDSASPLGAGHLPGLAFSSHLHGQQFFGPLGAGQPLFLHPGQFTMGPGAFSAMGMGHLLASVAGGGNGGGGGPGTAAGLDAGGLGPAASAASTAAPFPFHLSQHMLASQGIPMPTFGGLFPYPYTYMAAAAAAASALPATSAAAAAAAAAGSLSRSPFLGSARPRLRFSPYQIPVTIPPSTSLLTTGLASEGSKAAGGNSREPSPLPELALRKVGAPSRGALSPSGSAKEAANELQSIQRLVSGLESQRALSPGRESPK

Substance	binding
ARV7 (from UniProt P10275-3 1-644)	no binding
androgen receptor (from UniProt P10275 1-920)	no binding
glucocorticoid receptor (from UniProt P04150 1-777)	binds
